Values quoted from earlier work in US7547545B2, “Directed in vitro differentiation of marrow stromal cells into neural cell progenitors” (priority 2001, dated 2009).
At least one compound was matched to its structure with a doubt left.

System: prostate tumor cells
Conditions: Cox et al. 1999

SMILES: C=C[C@@]1(C)CC(=O)[C@]2(O)[C@@]3(C)[C@@H](O)CCC(C)(C)[C@@H]3[C@H](O)[C@H](OC(C)=O)[C@@]2(C)O1 [forskolin]
- neuroendocrine characteristics: induce prostate tumor cells to assume many of the characteristics of neuroendocrine cells
